These results are taken from article PMC1540706.

Amino acid sequences for entries named in this document (tags omitted). Residues count along the entry.
UniProt P63010, residues 700-937: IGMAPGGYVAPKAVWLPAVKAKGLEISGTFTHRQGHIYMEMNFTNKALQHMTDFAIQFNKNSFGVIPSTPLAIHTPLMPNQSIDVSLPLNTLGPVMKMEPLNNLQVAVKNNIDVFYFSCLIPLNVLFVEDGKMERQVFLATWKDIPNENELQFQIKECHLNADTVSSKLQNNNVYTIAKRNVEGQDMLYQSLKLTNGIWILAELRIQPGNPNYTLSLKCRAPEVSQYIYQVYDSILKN

Assay [1] concerns the target GST-human-β2-appendage (700–937) (human) (UniProt P63010). The assay is described as follows: affinity purification with mass spectrometry; 30–100 μg GST-appendage on glutathione-sepharose beads in HeLa cell extract (150 mM NaCl, 20 mM HEPES pH 7.4, 2 mM DTT, NP40, 0.1% Tx-100), 1 h at 4 °C, 4 washes; Coomassie bands read by LC-MS/MS; only the target purified.
Assay [2] concerns the target GST-mouse-α-appendage (α-earL695–983) (mouse). The assay is described as above.

No constants are given. Whether binding was seen depends on the method and setting. In cells and extracts the contact can be indirect. Here binding means that the protein was enriched with, or labelled near, the bait; the list need not be complete.

B1: aftiphilin (protein, UniProt Q6ULP2 1-936)
chain: MEPDIIRMYSSSPPPLDNGAEDDDDDEFGEFGGFSEVSPSGVGFVDFDTPDYTRPKEEFVPSNHFMPIHEFSENVDSLTSFKSIKNGNDKDITAELSAPVKGQSDVLLSTTSKEIISSEMLATSIDGMERPGNLNKVVEQRQNVGTLESFSPGDFRTNMNVVHQNKQLESCNGEKPPCLEILTNGFAVLETVNPQGTDDLDNVADSKGRKPLSTHSTEYNLDSVPSPAEEFADFATFSKKERIQLEEIECAVLNDREALTIRENNKINRVNELNSVKEVALGRSLDNKGDTDGEDQVCVSEISIVTNRGFSVEKQGLPTLQQDEFLQSGVQSKAWSLVDSADNSEAIRREQCKTEEKLDLLTSKCAHLCMDSVKTSDDEVGSPKEESRKFTNFQSPNIDPTEENDLDDSLSVKNGDSSNDFVTCNDINEDDFGDFGDFGSASGSTPPFVTGTQDSMSDATFEESSEHFPHFSEPGDDFGEFGDINAVSCQEETILTKSDLKQTSDNLSEECQLARKSSGTGTEPVAKLKNGQEGEIGHFDSVPNIQDDCNGFQDSDDFADFSSAGPSQVVDWNAFEDEQKDSCSWAAFGDQQATESHHRKEAWQSHRTDENIDTPGTPKTHSVPSATSKGAVASGHLQESATSVQTALLNRLERIFEACFPSILVPDAEEEVTSLKHLLETSTLPIKTREALPESGELLDVWTELQDIHDAHGLRYQWGGSHSNKKLLSSLGIDTRNILFTGNKKQPVIVPMYAAGLGMLEPTKEPLKPLSAAEKIASIGQTATMSPDMNTCTSDQFQESLPPVQFDWSSSGLTNPLDASGGSTLLNLDFFGPVDDSSSSSSTTIPGVDPELYELTTSKLEISTSSLKVTDAFARLMSTVEKTSTSTRKPKREEHLSEEAIKVIAGLPDLTFMHAKVLMFPATLTPSTSSQEKADG
Consider B1, for which the binding entry in assay [1] is given as “binds”.

B2: epsin2 (protein, UniProt O95208 1-641)
chain: MTTSSIRRQMKNIVNNYSEAEIKVREATSNDPWGPSSSLMTEIADLTYNVVAFSEIMSMVWKRLNDHGKNWRHVYKALTLLDYLIKTGSERVAQQCRENIFAIQTLKDFQYIDRDGKDQGINVREKSKQLVALLKDEERLKAERAQALKTKERMAQVATGMGSNQITFGRGSSQPNLSTSHSEQEYGKAGGSPASYHGSPEASLCPQHRTGAPLGQSEELQPLSQRHPFLPHLGLASRPNGDWSQPCLTCDRAARATSPRVSSELEQARPQTSGEEELQLQLALAMSREVAEQEERLRRGDDLRLQMALEESRRDTVKIPKKKEHGSLPQQTTLLDLMDALPSSGPAAQKAEPWGPSASTNQTNPWGGPAAPASTSDPWPSFGTKPAASIDPWGVPTGATVQSVPKNSDPWAASQQPASSAGKRASDAWGAVSTTKPVSVSGSFELFSNLNGTIKDDFSEFDNLRTSKKTAESVTSLPSQNNGTTSPDPFESQPLTVASSKPSSARKTPESFLGPNAALVNLDSLVTRPAPPAQSLNPFLAPGAPATSAPVNPFQVNQPQPLTLNQLRGSPVLGTSTSFGPGPGVESMAVASMTSAAPQPALGATGSSLTPLGPAMMNMVGSVGIPPSAAQATGTTNPFLL
Turning to B2, the binding result in assay [2] is listed as “binds”.

B3: KIAA1219 (protein, UniProt Q86X10 1-1494)
chain: MYSEWRSLHLVIQNDQGHTSVLHSYPESVGREVANAVVRPLGQVLGTPSVAGSENLLKTDKEVKWTMEVICYGLTLPLDGETVKYCVDVYTDWIMALVLPKDSIPLPVIKEPNQYVQTILKHLQNLFVPRQEQGSSQIRLCLQVLRAIQKLARESSLMARETWEVLLLFLLQINDILLAPPTVQGGIAENLAEKLIGVLFEVWLLACTRCFPTPPYWKTAKEMVANWRHHPAVVEQWSKVICALTSRLLRFTYGPSFPAFKVPDEDASLIPPEMDNECVAQTWFRFLHMLSNPVDLSNPAIISSTPKFQEQFLNVSGMPQELNQYPCLKHLPQIFFRAMRGISCLVDAFLGISRPRSDSAPPTPVNRLSMPQSAAVSTTPPHNRRHRAVTVNKATMKTSTVSTAHASKVQHQTSSTSPLSSPNQTSSEPRPLPAPRRPKVNSILNLFGSWLFDAAFVHCKLHNGINRDSSMTAITTQASMEFRRKGSQMSTDTMVSNPMFDASEFPDNYEAGRAEACGTLCRIFCSKKTGEEILPAYLSRFYMLLIQGLQINDYVCHPVLASVILNSPPLFCCDLKGIDVVVPYFISALETILPDRELSKFKSYVNPTELRRSSINILLSLLPLPHHFGTVKSEVVLEGKFSNDDSSSYDKPITFLSLKLRLVNILIGALQTETDPNNTQMILGAMLNIVQDSALLEAIGCQMEMGGGENNLKSHSRTNSGISSASGGSTEPTTPDSERPAQALLRDYALNTDSAAGLLIRSIHLVTQRLNSQWRQDMSISLAALELLSGLAKVKVMVDSGDRKRAISSVCTYIVYQCSRPAPLHSRDLHSMIVAAFQCLCVWLTEHPDMLDEKDCLKEVLEIVELGISGSKSKNNEQEVKYKGDKEPNPASMRVKDAAEATLTCIMQLLGAFPSPSGPASPCSLVNETTLIKYSRLPTINKHSFRYFVLDNSVILAMLEQPLGNEQNDFFPSVTVLVRGMSGRLAWAQQLCLLPRGAKANQKLFVPEPRPVPKNDVGFKYSVKHRPFPEEVDKIPFVKADLSIPDLHEIVTEELEERHEKLRSGMAQQIAYEIHLEQQSEEELQKRSFPDPVTDCKPPPPAQEFQTARLFLSHFGFLSLEALKEPANSRLPPHLIALDSTIPGFFDDIGYLDLLPCRPFDTVFIFYMKPGQKTNQEILKNVESSRTVQPHFLEFLLSLGWSVDVGRHPGWTGHVSTSWSINCCDDGEGSQQEVISSEDIGASIFNGQKKVLYYADALTEIAFVVPSPVESLTDSLESNISDQDSDSNMDLMPGILKQPSLTLELFPNHTDNLNSSQRLSPSSRMRKLPQGRPVPPLGPETRVSVVWVERYDDIENFPLSELMTEISTGVETTANSSTSLRSTTLEKEVPVIFIHPLNTGLFRIKIQGATGKFNMVIPLVDGMIVSRRALGFLVRQTVINICRRKRLESDSYSPPHVRRKQKITDIVNKYRNKQLEPEFYTSLFQEVGLKNCSS
On to B3, for which the binding entry in assay [1] was “binds”.

B4: γ-synergin (protein, UniProt Q9UMZ2 1-1314)
chain: MALRPGAGSGGGGAAGAGAGSAGGGGFMFPVAGGIRPPQAGLMPMQQQGFPMVSVMQPNMQGIMGMNYSSQMSQGPIAMQAGIPMGPMPAAGMPYLGQAPFLGMRPPGPQYTPDMQKQFAEEQQKRFEQQQKLLEEERKRRQFEEQKQKLRLLSSVKPKTGEKSRDDALEAIKGNLDGFSRDAKMHPTPASHPKKPGPSLEEKFLVSCDISTSGQEQIKLNTSEVGHKALGPGSSKKYPSLMASNGVAVDGCVSGTTTAEAENTSDQNLSIEESGVGVFPSQDPAQPRMPPWIYNESLVPDAYKKILETTMTPTGIDTAKLYPILMSSGLPRETLGQIWALANRTTPGKLTKEELYTVLAMIAVTQRGVPAMSPDALNQFPAAPIPTLSGFSMTLPTPVSQPTVIPSGPAGSMPLSLGQPVMGINLVGPVGGAAAQASSGFIPTYPANQVVKPEEDDFQDFQDASKSGSLDDSFSDFQELPASSKTSNSQHGNSAPSLLMPLPGTKALPSMDKYAVFKGIAADKSSENTVPPGDPGDKYSAFRELEQTAENKPLGESFAEFRSAGTDDGFTDFKTADSVSPLEPPTKDKTFPPSFPSGTIQQKQQTQVKNPLNLADLDMFSSVNCSSEKPLSFSAVFSTSKSVSTPQSTGSAATMTALAATKTSSLADDFGEFSLFGEYSGLAPVGEQDDFADFMAFSNSSISSEQKPDDKYDALKEEASPVPLTSNVGSTVKGGQNSTAASTKYDVFRQLSLEGSGLGVEDLKDNTPSGKSDDDFADFHSSKFSSINSDKSLGEKAVAFRHTKEDSASVKSLDLPSIGGSSVGKEDSEDALSVQFDMKLADVGGDLKHVMSDSSLDLPTVSGQHPPAADIEDLKYAAFGSYSSNFAVSTLTSYDWSDRDDATQGRKLSPFVLSAGSGSPSATSILQKKETSFGSSENITMTSLSKVTTFVSEDALPETTFPALASFKDTIPQTSEQKEYENRDYKDFTKQDLPTAERSQEATCPSPASSGASQETPNECSDDFGEFQSEKPKISKFDFLVATSQSKMKSSEEMIKSELATFDLSVQGSHKRSLSLGDKEISRSSPSPALEQPFRDRSNTLNEKPALPVIRDKYKDLTGEVEENERYAYEWQRCLGSALNVIKKANDTLNGISSSSVCTEVIQSAQGMEYLLGVVEVYRVTKRVELGIKATAVCSEKLQQLLKDIDKVWNNLIGFMSLATLTPDENSLDFSSCMLRPGIKNAQELACGVCLLNVDSRSRKEEKPAEEHPKKAFNSETDSFKLAYGGHQYHASCANFWINCVEPKPPGLVLPDLL
As for B4, in assay [1], the binding result is given as “binds”.

B5: KIAA1558 (protein, UniProt Q5H9R7 1-873)
chain: MFWKFDLHSSSHIDTLLEREDVTLKELMDEEDVLQECKAQNRKLIEFLLKAECLEDLVSFIIEEPPQDMDEKIRYKYPNISCELLTSDVSQMNDRLGEDESLLMKLYSFLLNDSPLNPLLASFFSKVLSILISRKPEQIVDFLKKKHDFVDLIIKHIGTSAIMDLLLRLLTCIEPPQPRQDVLNWLNEEKIIQRLVEIVHPSQEEDRHSNASQSLCEIVRLSRDQMLQIQNSTEPDPLLATLEKQEIIEQLLSNIFHKEKNESAIVSAIQILLTLLETRRPTFEGHIEICPPGMSHSACSVNKSVLEAIRGRLGSFHELLLEPPKKSVMKTTWGVLDPPVGNTRLNVIRLISSLLQTNTSSINGDLMELNSIGVILNMFFKYTWNNFLHTQVEICIALILASPFENTENATITDQDSTGDNLLLKHLFQKCQLIERILEAWEMNEKKQAEGGRRHGYMGHLTRIANCIVHSTDKGPNSALVQQLIKDLPDEVRERWETFCTSSLGETNKRNTVDLVTTCHIHSSSDDEIDFKETGFSQDSSLQQAFSDYQMQQMTSNFIDQFGFNDEKFADQDDIGNVSFDRVSDINFTLNTNESGNIALFEACCKERIQQFDDGGSDEEDIWEEKHIAFTPESQRRSSSGSTDSEESTDSEEEDGAKQDLFEPSSANTEDKMEVDLSEPPNWSANFDVPMETTHGAPLDSVGSDVWSTEEPMPTKETGWASFSEFTSSLSTKDSLRSNSPVEMETSTEPMDPLTPSAAALAVQPEAAGSVAMEASSDGEEDAESTDKVTETVMNGGMKETLSLTVDAKTETAVFKSEEGKLSTSQDAACKDAEECPETAEAKCAAPRPPSSSPEQRTGQPSAPGDTSVNGPV
B5: the binding entry in assay [1] is “binds”.
